# Reference: PubChem BioAssay (NCATS)
# Chains of the proteins cited; added tags and fusions are not shown. Lines headed by an entry give the natural chain unless they say otherwise; changes in a name come on top.
# UniProt P07203, whole entry, looked up: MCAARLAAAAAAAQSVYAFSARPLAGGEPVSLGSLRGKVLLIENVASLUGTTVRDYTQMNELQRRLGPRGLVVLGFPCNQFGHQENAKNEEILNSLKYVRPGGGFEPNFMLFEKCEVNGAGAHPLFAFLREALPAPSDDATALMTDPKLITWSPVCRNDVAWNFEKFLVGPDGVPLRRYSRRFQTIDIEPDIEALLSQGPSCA
# UniProt P11712, whole entry, looked up: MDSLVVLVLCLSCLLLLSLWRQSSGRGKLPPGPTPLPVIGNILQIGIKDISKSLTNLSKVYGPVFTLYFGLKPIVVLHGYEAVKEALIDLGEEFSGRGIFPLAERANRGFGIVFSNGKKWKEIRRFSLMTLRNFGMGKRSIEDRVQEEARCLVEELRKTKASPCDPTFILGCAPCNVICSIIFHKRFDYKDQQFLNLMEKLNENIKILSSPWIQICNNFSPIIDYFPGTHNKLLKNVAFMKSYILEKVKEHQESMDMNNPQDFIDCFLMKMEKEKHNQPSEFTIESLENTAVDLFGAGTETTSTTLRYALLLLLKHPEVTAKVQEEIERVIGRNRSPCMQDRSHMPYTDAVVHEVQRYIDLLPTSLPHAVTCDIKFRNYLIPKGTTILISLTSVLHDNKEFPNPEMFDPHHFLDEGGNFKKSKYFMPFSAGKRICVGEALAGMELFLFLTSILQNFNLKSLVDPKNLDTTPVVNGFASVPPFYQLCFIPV
# UniProt O94782: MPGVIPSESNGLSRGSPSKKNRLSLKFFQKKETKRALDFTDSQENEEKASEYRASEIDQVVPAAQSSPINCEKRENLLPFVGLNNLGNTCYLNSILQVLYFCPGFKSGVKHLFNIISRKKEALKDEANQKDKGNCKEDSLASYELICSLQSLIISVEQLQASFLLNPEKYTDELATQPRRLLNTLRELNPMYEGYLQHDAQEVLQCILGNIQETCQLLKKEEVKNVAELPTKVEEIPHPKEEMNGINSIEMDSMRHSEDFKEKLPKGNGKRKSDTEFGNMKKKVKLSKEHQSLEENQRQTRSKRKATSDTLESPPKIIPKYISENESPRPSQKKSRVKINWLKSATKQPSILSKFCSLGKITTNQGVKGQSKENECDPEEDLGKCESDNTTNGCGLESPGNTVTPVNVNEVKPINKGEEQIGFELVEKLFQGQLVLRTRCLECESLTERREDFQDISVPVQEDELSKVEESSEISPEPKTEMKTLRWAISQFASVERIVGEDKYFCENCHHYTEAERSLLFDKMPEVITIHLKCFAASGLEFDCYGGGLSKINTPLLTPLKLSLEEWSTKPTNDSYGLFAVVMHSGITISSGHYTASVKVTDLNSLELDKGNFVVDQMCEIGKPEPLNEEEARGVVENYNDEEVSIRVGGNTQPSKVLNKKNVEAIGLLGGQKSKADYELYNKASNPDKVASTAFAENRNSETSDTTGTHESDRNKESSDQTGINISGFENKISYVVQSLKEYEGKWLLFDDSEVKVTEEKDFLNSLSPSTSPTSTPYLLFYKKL
# UniProt P10635, whole entry, looked up: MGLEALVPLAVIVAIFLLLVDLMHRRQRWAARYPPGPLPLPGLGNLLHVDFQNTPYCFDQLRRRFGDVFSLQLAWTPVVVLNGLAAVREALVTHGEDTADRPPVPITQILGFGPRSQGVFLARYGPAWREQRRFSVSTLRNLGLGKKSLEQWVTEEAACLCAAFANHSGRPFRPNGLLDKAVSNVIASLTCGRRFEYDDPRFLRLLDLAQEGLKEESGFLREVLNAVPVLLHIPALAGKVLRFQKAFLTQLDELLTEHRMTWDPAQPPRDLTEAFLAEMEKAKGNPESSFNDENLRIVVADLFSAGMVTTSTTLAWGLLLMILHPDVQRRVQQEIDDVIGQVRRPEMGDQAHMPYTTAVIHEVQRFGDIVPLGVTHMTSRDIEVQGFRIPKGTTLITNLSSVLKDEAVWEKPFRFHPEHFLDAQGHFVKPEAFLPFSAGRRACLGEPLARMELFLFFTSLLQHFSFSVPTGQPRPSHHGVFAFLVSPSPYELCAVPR
# Values joined by “and” are separate entries in the source; they are usually repeats but may differ in a detail not shown here. Equal values may be shown once. The inconclusive results got no clear call from the source; some entries with a clear call stand among them for comparison. For part of these data: Where the call is inconclusive, the potency comes from a doubtful curve fit. The source holds several records for some structures; these can differ, active in one and inactive in another. Active and inactive are the calls of the source. Unless noted, calls come from the whole dose curve; as a rule, active = well fitted curve in the direction sought with a large enough effect; inconclusive = small, poorly fitted or top-dose-only effect, or another doubt; inactive = no such curve, though single readings can be large; an effect the other way counts as inactive or inconclusive.
# Legend:
# [1] = Quantitative High-Throughput drug screen in 47 multiple myeloma cell lines against the NCATS MIPE library collection: ARD_JJKsccE7 cell viability assay (AID 1918929; note: potency is the fitted concentration of half-maximal effect)
# Outline: (§1)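 Relative luminescence from CellTiter-Glo served as the viability signal, referenced to DMSO-treated (100%) and cell-free medium (0%) controls. Treatment lasted 48 hours at 37C with 500 cells per well.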
# [2] = Drug repurposing screens with cells derived from glioblastoma tumor samples (AID 1345199); conditions: GBM patient neurospheres viability, ATP luminescence, 48 h; Potency: tumour line A unless noted; series mostly up to 46 µM; note: nearly all actives have a fitted effect of over 40% in size; note: potency is the fitted concentration of half-maximal effect
# Outline: (§2)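 Four patient lines of CD133+ GBM neurospheres were screened at several concentrations; hits were retested in those lines plus three slower-growing GBM lines, using 48-hour treatment and ATP-based viability.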
# astro = assay: as above; conditions: viability, ATP luminescence, 48 h; series mostly up to 45.9 µM
# Outline: as §2
# [3] = Quantitative High-Throughput drug screen in 47 multiple myeloma cell lines against the NCATS MIPE library collection: FR4_PLB cell viability assay (AID 1918924; note: potency is the fitted concentration of half-maximal effect; nearly all actives have a fitted effect of over 35% in size)
# Outline: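 Luminescent ATP measurement with CellTiter-Glo gives viability, scaled between DMSO-only wells (100%) and media-only wells (0%). Cells, 500 per well, faced library compounds for 48 hours at 37C.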
# [4] = test system: Zika virus NS2B-NS3 protease (unlinked complex); assay: Primary screen GU Rhodamine qHTS for Zika virus inhibitors: Unlinked NS2B-NS3 protease assay (AID 1347159); note: nearly all actives have a fitted effect of over 60% in size; note: potency is the fitted concentration of half-maximal effect
# Outline: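 Percent inhibition derives from the 15-min fluorescence change (ex 480, em 540 nm), normalized to no-enzyme and no-inhibitor wells. Reactions contained 25 nM NS2B-NS3 complex and 1.5 microM substrate in 10 mM Tris-HCl pH 8.0.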
# [5] = molecular target: Glutathione peroxidase 1 (Homo sapiens) (UniProt P07203); assay: Primary qHTS Assay for Inhibitors of Recombinant Selenoprotein Glutathione Peroxidase 1 (GPX1) (AID 1845191); conditions: activity, negative = inhibition: at 48.8 µM (top of the series); note: potency is the fitted concentration of half-maximal effect; nearly all actives have a fitted effect of over 65% in size
# Outline: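 10 nM GPX1 + cpd, 30 min RT; start w/ 1 mM GSH, 0.5 mM cumene hydroperoxide, 0.5 mM NADPH, 100 nM GR, 0.01% BSA; buffer 50 mM Tris-HCl pH 7.5, 2 mM EDTA, 150 mM NaCl; Fl 340/450, 0 & 15 min.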
# [6] = Primary redox qHTS assay for identification of artifact compounds. (AID 1845223)
# Outline: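 Amplex Red (25 uM) and HRP (250 mU/mL) in HBSS, with compounds for 15 min, then 250 uM DTT for 30 min, room temperature, dark. Fluorescence 525/598 nm read; normalized to DMSO and 10 uM DA3003; Hill fit.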
# [7] = molecular target: Cytochrome P450 2C9 (Homo sapiens) (UniProt P11712); assay: Cytochrome P450 family 2 subfamily C member 9 (CYP2C9) small molecule antagonists: luciferase biochemical (cell-free) qHTS assay (AID 1645842; active = well fitted curve in the direction sought with a large enough effect in the repeat runs; inconclusive = weak or mixed curves; inactive = no such curve, though single readings can be large; an effect the other way counts as inactive or inconclusive; note: nearly all actives have a fitted effect of over 55% in size; note: potency is the fitted concentration of half-maximal effect)
# Outline: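 Luminescence, after 20 min with luciferin detection reagent, reflected CYP2C9 turnover during a 1 h NADPH-driven reaction at 37C. Enzyme-substrate mix contained 0.4% bovine serum albumin and was preincubated with compound 10 min at room temperature.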
# [8] = P-glycoprotein substrates identified in KB-3-1 adenocarcinoma cell line, qHTS therapeutic library screen (AID 1346986); conditions: KB-3-1 parental cells viability, CellTiter-Glo, 72 h; series mostly up to 44.5 µM; note: nearly all actives have a fitted effect of over 60% in size;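 note: potency is the fitted concentration of half-maximal effect; potency is for cytotoxicity meaning loss of cell viability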
# Outline: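 Cells seeded 500/well in DMEM/10% FCS; compounds pinned in dose-response; 72 h incubation; CellTiter-Glo added, 5 min, luminescence. KB-8-5-11 run ±tariquidar to test reversal of P-gp resistance.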
# [9] = qHTS of pediatric cancer cell lines to identify multiple opportunities for drug repurposing: Confirmatory screen for BT-37 cells (AID 1347117);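 note: potency is the fitted concentration of half-maximal effect; viability measured after 48 h of compound exposure; nearly all actives have a fitted effect of over 55% in size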
# Outline: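 Cells (500-1,000/well) rested 5 h, then received compounds for 48 h; metabolically active cells were measured by CellTiter-Glo luminescence. Final concentrations spanned up to 46 µM (MIPE, 11-point) or 0.59 nM-46 µM (NPC, 8-point) in primary screens, 11-point in follow-ups.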
# [10] = qHTS of pediatric cancer cell lines to identify multiple opportunities for drug repurposing: Confirmatory screen for TC32 cells (AID 1347118);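 note: potency is the fitted concentration of half-maximal effect; cells exposed to compound for 48 h before the read; nearly all actives have a fitted effect of over 65% in size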
# Outline: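 Luminescent ATP read-out (CellTiter-Glo) of metabolically active TC32 cells after 48 h exposure. Concentration-response curves came from 11-point (MIPE, 0.78 nM–46 µM) or 8-point (NPC, 0.59 nM–46 µM) primary titrations; follow-up used 11 points.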
# [11] = qHTS Assay for Identification of Small Molecule Agonists for NFkB Signaling Pathway. (AID 624478)
# Outline: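 NFkB-bla ME-180 cells carry a beta-lactamase reporter. They received compound plus TNF alpha at 10 pM final (its EC50) for 5 h at 37 C. Reporter activity was read as 460/530 nm emission ratio after 2 h LiveBLAzer substrate loading.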
# [12] = Quantitative High-Throughput drug screen in 47 multiple myeloma cell lines against the NCATS MIPE library collection: KMS26_JCRB cell viability assay (AID 1918975); conditions: KMS26 myeloma cells viability, CellTiter-Glo ATP, 48 h; series mostly up to 45.8 µM; note: potency is the fitted concentration of half-maximal effect; nearly all actives have a fitted effect of over 45% in size
# Outline: as §1
# [13] = molecular target: Ubiquitin carboxyl-terminal hydrolase 1 (Homo sapiens) (UniProt O94782); assay: Inhibitors of USP1/UAF1: Pilot qHTS (AID 504865); note: potency is the fitted concentration of half-maximal effect; nearly all actives have a fitted effect of over 35% in size
# Outline: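 Enzyme-free wells gave the negative control, while test wells held 1nM USP1/UAF1 preincubated with compound for 15 min at room temperature. Ub-Rho at 150nM final started the reaction, and fluorescence at 480/540 nm was recorded kinetically.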
# [14] = A High-Content qHTS Against Drug Library for the Identification of Small Molecules that Inhibit DYT1 Early Onset Primary Dystonia-Associated Cell Pathology (AID 1645839; calls by dose curve; note: potency is the fitted concentration of half-maximal effect)
# Outline: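 In this high-content image screen, delE TorsinA mislocalization in inducible Flp-In 293 cells is scored as %pathology, with cell count serving as the counterscreen. Compound exposure lasts 48 h under tetracycline induction in reduced-serum medium.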
# [15] = molecular target: Cytochrome P450 2D6 (Homo sapiens) (UniProt P10635); assay: Cytochrome P450 family 2 subfamily D member 6 (CYP2D6) small molecule antagonists: luciferase biochemical (cell-free) qHTS assay (AID 1645840; active = well fitted curve in the direction sought with a large enough effect in the repeat runs; inconclusive = weak or mixed curves; inactive = no such curve, though single readings can be large; an effect the other way counts as inactive or inconclusive; note: potency is the fitted concentration of half-maximal effect; nearly all actives have a fitted effect of over 55% in size)
# Outline: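 P450-Glo luminescent screen: recombinant CYP2D6 enzyme–proluciferin substrate mix preincubated with compound 10 min at room temperature, then NADPH regeneration added for 1 h at room temperature. Detection reagent added for 20 min; luciferin light read as relative luminescence units.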
# [16] = Primary fluorescence-based thiol-reactive (MSTI) qHTS assay for identification of artifact compounds. (AID 1845221); note: potency is the fitted concentration of half-maximal effect; nearly all actives have a fitted effect of over 65% in size
# Outline: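 In PBS pH 7.4 with 2% DMSO, each compound met 4 uM MSTI for one hour at ambient temperature, shielded from light, before fluorescence detection.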
smiles,measurement,setting,value
COc1cc(C(C)C)c2c(c1)S(=O)(=O)N(COc1cc(=O)n3cccc(OCCN4CCCCC4)c3n1)C2=O,Potency,[1],"inconclusive: 37.2 µM [cytotoxic, single point]"
CC(=O)O[C@@]12CO[C@@H]1C[C@H](O)[C@@]1(C)C(=O)[C@H](O)C3=C(C)[C@@H](OC(=O)[C@H](O)[C@@H](NC(=O)OC(C)(C)C)c4ccccc4)C[C@@](O)([C@@H](OC(=O)c4ccccc4)[C@H]21)C3(C)C,Potency,[2],active: 10 µM
same,Potency,astro,"inconclusive: 10 µM [inhibitor, partial curve, poor fit] and inconclusive: 3.5 nM [inhibitor, full curve]"
Cc1cc(Nc2nc(N[C@@H](C)c3ncc(F)cn3)ncc2Cl)n[nH]1,Potency,[3],"inconclusive: 23.5 µM [cytotoxic, partial curve]"
same,Potency,[1],"inconclusive: 0.0042 µM [rising, full curve, poor fit]"
CC(=O)Nc1sc2c(c1-c1nc3ccccc3s1)CNC2,Potency,[4],inactive
same,Potency,[5],active: 3.6 µM
same,Potency,[6],inactive
CCN(CC)CCn1c(=O)c(Cc2ccc(OC)cc2)nc2ccccc21,Potency,[7],inactive
same,Potency,[2],active: 10 µM
same,Potency,astro,inactive
O=S(=O)(N=Cc1c(O)ccc2ccccc12)c1cccs1,Potency,[1],"inconclusive: 26.4 µM [cytotoxic, single point]"
COc1cc2nccc(Oc3ccc(NC(=O)NC4CC4)c(Cl)c3)c2cc1C(N)=O,Potency,[8],inactive
same,Potency,[9],"inconclusive: 4.14 µM [cytotoxic, full curve]"
same,Potency,[10],active: 14.7 µM
same,Potency,[4],"inconclusive: 31.6 µM [inhibitor, full curve, poor fit]"
same,Potency,[1],"inconclusive: 0.662 µM [cytotoxic, full curve, poor fit]"
CC[C@H](Nc1ncnc2nc[nH]c12)c1nc2cccc(F)c2c(=O)n1-c1ccccc1,Potency,[3],active: 20.9 µM
same,Potency,[1],"inconclusive: 0.418 µM [cytotoxic, full curve, poor fit]"
CN1CCC(CNc2ccc3ncc(-c4cccc(OC(F)(F)F)c4)n3n2)CC1,Potency,[7],"inconclusive: 21.3 µM [inhibitor, single point]"
same,Potency,[5],"inconclusive: 36 µM [inhibitor, partial curve, poor fit] and inconclusive: 18.3 µM [inhibitor, single point]"
CCC(=C(c1ccccc1)c1ccc(OCCN(C)C)cc1)c1ccccc1,Potency,[11],"inconclusive: 33.2 µM [activator, single point]"
same,Potency,[9],"inconclusive: 26.1 µM [cytotoxic, partial curve]"
same,Potency,[10],active: 20.8 µM
same,Potency,[3],"inconclusive: 23.5 µM [cytotoxic, partial curve]"
Cc1ccc2c(c1)C(=O)[C@@]1(O)CCN(c3ccccc3)C1=N2,Potency,[7],"inconclusive: 6.74 µM [inhibitor, partial curve]"
CC(C)=CCCC(C)=CCCC(C)=CCSc1ccccc1C(=O)O,Potency,[11],"inconclusive: 37.2 µM [activator, partial curve, poor fit]"
same,Potency,[1],"inconclusive: 0.526 µM [cytotoxic, full curve]"
same,Potency,[12],active: 4.18 µM
NC(=O)c1ncn([C@@H]2O[C@H](CO)[C@@H](O)[C@H]2O)c1N,Potency,[5],"inconclusive: 5.08 µM [inhibitor, full curve, poor fit]"
C/C(=C\C(=O)Nc1ccccc1C(=O)O)c1ccc2ccccc2c1,Potency,[8],"inconclusive: 23.1 µM [inhibitor, single point]"
same,Potency,[7],"inconclusive: 23.9 µM [inhibitor, single point]"
CC1=C(/C=C/C(C)=C/C=C/C(C)=C/C(=O)Nc2ccc(O)cc2)C(C)(C)CCC1,Potency,[13],"inconclusive: 39.8 µM [inhibitor, partial curve]"
same,Potency,[14],"inconclusive: 1.78 µM [inhibitor, full curve, poor fit]"
same,Potency,[15],"inconclusive: 24.5 µM [inhibitor, partial curve]"
same,Potency,astro,active: 11.2 µM
C[C@H](NC(=O)Cc1cc(F)cc(F)c1)C(=O)N[C@@H]1C(=O)N(C)c2ccccc2-c2ccccc21,Potency,[4],"inconclusive: 89.1 µM [inhibitor, partial curve, poor fit]"
same,Potency,[6],inactive
same,Potency,[12],"inconclusive: 0.003 µM [rising, full curve, poor fit]"
CN(NC(=O)CC(=O)NN(C)C(=S)c1ccccc1)C(=S)c1ccccc1,Potency,[16],"inconclusive: 0.0212 µM [inhibitor, full curve, poor fit]"
O=C(c1ccc(Nc2nccc(-c3cc4ccccc4s3)n2)cc1)N1CCC(N2CCCC2)CC1,Potency,[15],"inconclusive: 26.8 µM [inhibitor, single point]"
same,Potency,[6],inactive
same,Potency,[1],active: 9.35 µM
NC(=O)c1ccc(-c2nc(-c3ccc4c(c3)OCO4)c(-c3ccccn3)[nH]2)cc1,Potency,[13],"inconclusive: 56.2 µM [inhibitor, partial curve]"
same,Potency,[3],active: 14.8 µM

# A section taken from the entries so far, for reference:
smiles,measurement,setting,value
COc1cc2nccc(Oc3ccc(NC(=O)NC4CC4)c(Cl)c3)c2cc1C(N)=O,Potency,[4],"inconclusive: 31.6 µM [inhibitor, full curve, poor fit]"
same,Potency,[1],"inconclusive: 0.662 µM [cytotoxic, full curve, poor fit]"
CC[C@H](Nc1ncnc2nc[nH]c12)c1nc2cccc(F)c2c(=O)n1-c1ccccc1,Potency,[3],active: 20.9 µM
same,Potency,[1],"inconclusive: 0.418 µM [cytotoxic, full curve, poor fit]"
